Measurements: publication PMC11476691, “ATM1, an essential conserved transporter in Apicomplexa, bridges mitochondrial and cytosolic [Fe-S] biogenesis” (PLOS Pathogens, 2024)
No constants are given. Whether binding was seen depends on the method and setting. In cells and extracts the contact can be indirect. Sequences can lack the tags named with a protein.

T1: 6XHis-EcEngA (UniProt P0A6P5)
T1 sequence: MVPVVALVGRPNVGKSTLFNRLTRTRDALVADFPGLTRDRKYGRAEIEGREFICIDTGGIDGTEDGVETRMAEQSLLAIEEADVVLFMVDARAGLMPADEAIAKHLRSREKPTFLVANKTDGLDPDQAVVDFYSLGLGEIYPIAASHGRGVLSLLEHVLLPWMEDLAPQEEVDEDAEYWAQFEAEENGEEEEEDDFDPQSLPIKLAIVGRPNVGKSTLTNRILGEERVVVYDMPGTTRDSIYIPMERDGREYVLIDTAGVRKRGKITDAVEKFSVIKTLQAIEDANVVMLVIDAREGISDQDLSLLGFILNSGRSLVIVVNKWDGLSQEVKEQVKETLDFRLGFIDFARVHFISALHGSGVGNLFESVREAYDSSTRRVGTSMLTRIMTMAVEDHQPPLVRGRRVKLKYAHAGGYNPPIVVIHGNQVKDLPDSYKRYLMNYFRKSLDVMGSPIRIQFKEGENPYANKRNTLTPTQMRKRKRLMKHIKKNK


Target: T1, 6XHis-EcEngA
Experiment: pull-down; 6XHis-tagged bait bound to Ni-NTA beads; P. falciparum lysate; western blot of the eluates; only the target purified

Binder | binding
PfIscU (protein, UniProt Q8IKT4 1-162) MKSKILCNLFKGKSCICLYTNCLNENNVNKCYYNLVRNYSDHVKDHFNKPRNVGSFDKNEKNIGTSIVGKASCGDVIKLQLKIENDVIKDARFMAFGCGSAIASSSYATELIKGKTIDEALKIKNNDIASHLSLPPVKIHCSLLAEDAIKHAIKNYREKVLT | no binding
PfIscA2 (protein, UniProt O97297 1-404) MFNNFLNMYMCTLAEKLCKFKKNNFNNIHRNNNFYRDNNFYRDNNFYRDNNFYRDNNFYRDNNLYTNNNLYRDNNFYRDNNFYRDNNFYRDNNLYTNNNLYRDNNLYTNNNLYRDNNFYNITLRKFHFIQTISNNNFNFEIIKKYGDVINKIMFIHTQKKNKQERFMFNNKKYIKRKEYILNDLNEFISIIPHPEINNEITNNSNQKKNKDNKQNVLSTNQQIITNYNLNHKENVTSNLNFNNKEEDEKKLDKLLKKRNIKKRDIVTITEEAKEELKKIISINKKENNNNYNNMNTICSDNHNDMNTICNDKNILKLFFITKGCNGLTHSFNFISKKDIHKEDEIIYDDQNNILLVIDKNCILYVINTTLDYYKDDLTEKFIFKNPNITSICPCGTSFHFSKKK | no binding
